Experimental data published in PMC3631182.
No constants are given. Whether binding was seen depends on the method and setting. For part of these data: Binding calls can cover weak binding; strength is not graded here. Where a sequence is shown, tags or fusion partners need not be part of it.

Tests used:
Assay in all cases: two-hybrid; yeast; TnaA baits on the GAL4 DNA-binding domain (pGBKT7), Ubc9 or OsaC2 preys on the GAL4 activation domain (pGADT7); reporters ADE2 and HIS3, growth on QDO (SD-Trp/-Leu/-Ade/-His) with 3 mM 3-AT
[1] = target: TnaA_(QLess) fragment (306-696 aa) fused to the GAL4 DNA-binding domain (Drosophila melanogaster)
[2] = target: TnaA_(SP-COO QLess) fragment (711-999 aa) fused to the GAL4 DNA-binding domain (Drosophila melanogaster)
[3] = target: TnaA_(XSPRING2) fragment (379-927 aa) fused to the GAL4 DNA-binding domain (Drosophila melanogaster)

binding [1]: binds
binding [2]: no binding
binding [3]: no binding
B1: OsaC2 fragment of Osa (amino acids 1951-2600) fused to the GAL4 activation domain (domain or fragment, UniProt Q8IN94 1951-2600)
chain: EERSLLLSFTPNYTMVTRKGVPVRIQPAENDIFVDERQKAWDIDTNRLYEQLEPVGSDAWTYGFTEPDPLDGIIDVFKSEIVNIPFARYIRSDKKGRKRTELASSSRKPEIKTEENSTEEQTFNKKRRLVSGGSSSSGAHAEGKKSKLTSEEFAQPNAEVKKEPGTADSDCRPVDMDIEAPQQRLTNGVAPCSSTPAIFDPRTTAKDEARVLQRRRDSSFEDECYTRDEASLHLVSESQDSLARRCIALSNIFRNLTFVPGNETVLAKSTRFLAVLGRLLLLNHEHLRRTPKTRNYDREEDTDFSDSCSSLQGEREWWWDYLITIRENMLVAMANIAGHLELSRYDELIARPLIDGLLHWAVCPSAHGQDPFPSCGPNSVLSPQRLALEALCKLCVTDANVDLVIATPPFSRLEKLCAVLTRHLCRNEDQVLREFSVNLLHYLAAADSAMARTVALQSPCISYLVAFIEQAEQTALGVANQHGINYLRENPDSMGTSLDMLRRAAGTLLHLAKHPDNRSLFMQQEQRLLGLVMSHILDQQVALIISRVLYQVSRGTGPIHSVEFRLLQQRQQQQLRPGPAGKQAASAGGSATVKAETASTETSSTEAKPAPAATTAVVNDENSNSSQQLPPAATFNDVSNSSTNSNSCGT
